These are yes or no findings as the source states them, for the method shown. Some binding calls cover weakened binding; strength is not graded here.
Key:
[1] = molecular target: MHC class II I-A^b molecules purified by affinity chromatography (mouse) (UniProt P14434); test: competitive binding assay, purified I-A^b
[2] = molecular target: MHC class II I-A^b molecules purified by affinity chromatography (mouse) (UniProt P14434); test: competitive binding assay, purified I-A^b, radiolabeled competitor peptide
[3] = molecular target: MHC class II I-A^b molecules purified by affinity chromatography (mouse) (UniProt P14434); test: peptide binding to purified MHC II molecules, biochemical

Amino acid sequences for entries named in this document (tags omitted). A change or cut given only in a name is not applied to a line headed by its entry.
UniProt P14434: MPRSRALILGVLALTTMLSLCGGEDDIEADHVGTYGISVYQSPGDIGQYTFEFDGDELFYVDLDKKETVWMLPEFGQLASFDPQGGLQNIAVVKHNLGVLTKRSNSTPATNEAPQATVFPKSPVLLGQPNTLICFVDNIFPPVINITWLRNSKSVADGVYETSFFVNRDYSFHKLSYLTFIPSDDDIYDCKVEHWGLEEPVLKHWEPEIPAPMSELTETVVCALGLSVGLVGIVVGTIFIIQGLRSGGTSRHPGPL

- binding [1]: binds
- binding [2]: binds
- binding [3]: binds
Binder: LYLVTPPSVVGGLGVT [AQP4 p133-149]

Reference: US20250052751A1, “COMPOSITIONS AND METHODS FOR DIAGNOSING AUTOIMMUNE AQUAPORINOPATHY” (The Regents of the University of California, priority 2023, published 2025)
